Measured values: PubChem BioAssay AID493014 (National Center for Advancing Translational Sciences (NCATS), 2011)
Some of the results follow. Shown are side measurements of this screen, not its main read-out; they come without a call. The list favours compounds with an active or inconclusive main result. Words in brackets tell the shape of the fitted curve; partial curves, single points and poor fits give uncertain potencies.

Assay: qHTS Assay to Find Inhibitors of Chronic Active B-Cell Receptor Signaling
Settings: ABC-DLBCL IkBa-CBG/CBR reporter, luminescence ratio (green luciferase fused to IkBa over red control in TMD8 lymphoma cells), 4 h
How it was run: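 Compounds up to 46 uM were incubated four hours with TMD8 cells whose green CBG68 luciferase is fused to IkappaBalpha; red CBR luminescence normalised the signal, and concentration-effect curves were fitted to fusion, red and ratio data.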

[1] = measured here: CBR red luminescence, cell number

| Compound | AC50 [1] | AC50 (measured here: IkBa-CBG green luminescence) |
| --- | --- | --- |
| CN1CCN(C(=O)CN2C(=O)CC(C)(C)S(=O)(=O)c3ccccc32)CC1 | 2.06 µM [rising, partial curve, poor fit] | – |
| C/C=C/Cn1c(Br)nc2c1c(=O)[nH]c(=O)n2C | 6.51 µM [falling, single point] | – |
| Cc1c(O)c(S(=O)(=O)c2ccccc2)c(=O)n(-c2ccccc2)c1-c1ccccc1 | 25.9 µM [falling, partial curve, poor fit] | – |
| Cc1csc(SCC(=O)NCCc2ccc(Cl)cc2Cl)n1 | 16.4 µM [falling, partial curve, poor fit] | – |
| COc1ccc2c(c1)CC/C2=N\OC(=O)c1cccc(C)c1 | 3.26 µM [rising, partial curve, poor fit] | – |
| COc1ccc(Cl)cc1N1C(=O)C2CCCN2C1c1sccc1C (stereo unspecified) | 25.1 µM [falling, single point] | – |
| COc1cc(/C=C/C(=O)OCC(=O)NCc2ccco2)ccc1OCC#N | 5.01 µM [falling, full curve] | – |
| Cc1ccc(C(=O)NC(=C(Cl)Cl)S(=O)(=O)c2ccccc2)cc1 | 9.2 µM [falling, partial curve] | – |
| C/C(=N/NS(=O)(=O)c1ccc(C)cc1)c1c(O)c2ccccc2oc1=O | 10 µM [falling, partial curve] | – |
| C=CCNC(=O)CCCOc1ccc(C)cc1 | 4.11 µM [rising, partial curve, poor fit] | – |
| O=[N+]([O-])c1ccc(S(=O)(=O)N2CCN=C2SCc2cccnc2)cc1 | 2.51 µM [rising, full curve, poor fit] | – |
| Cc1[nH]n(-c2ccccc2)c(=O)c1/C=N\NC(=O)C1COc2ccccc2O1 (stereo unspecified) | – | 0.517 µM [rising, partial curve, poor fit] |
| COCCn1c(=O)[nH]c2cc(C(=O)N3CCN(c4cc(C)ccc4C)CC3)ccc2c1=O | 4.47 µM [falling, full curve] | – |
| COc1cc(OC)c2c(-c3ccccc3)cc(=O)oc2c1C(CC(=O)N1CCN(c2ccccc2)CC1)c1ccc(N(C)C)cc1 (stereo unspecified) | 35.5 µM [falling, single point] | – |
| CC(C)c1nnc(NC(=O)c2cccc(NC(=O)C(F)(F)F)c2)s1 | 35.5 µM [falling, single point] | – |
| O=C(c1ccc(Cl)c(Cl)c1)N1CCC(=O)N(C(COCc2cccc(Cl)c2)Cc2ccccc2)CC1 (stereo unspecified) | 29.1 µM [falling, single point] | – |
| COc1ccccc1NCC(=O)N/N=C(\C)c1cccs1 | 0.355 µM [falling, full curve, poor fit] | – |
| Cn1cc(CNC(=O)c2cc(COc3ccc4c(c3)CCCC4)on2)cn1 | 1.26 µM [rising, partial curve, poor fit] | – |
| C/C(CC(=O)Nc1cccnc1)=N\NC(=O)C(=O)NC(C)C | 35.5 µM [falling, single point] | – |
| Cc1cc(Cl)ccc1OCC(=O)NNC(=O)C1CCN(c2ncnc3sc(C)c(C)c23)CC1 | 29.1 µM [falling, single point] | – |
| COc1ccc(C2=CC(c3sccc3C)n3nnnc3N2)cc1 (stereo unspecified) | 0.794 µM [falling, full curve, poor fit] | – |

| Compound | AC50 [1] | AC50 (measured here: IkBa-CBG green luminescence) |
| --- | --- | --- |
| O=C(CN1C(=O)S/C(=C\c2cccs2)C1=O)Nc1ccc(O)cc1C(=O)O | 3.55 µM [falling, partial curve, poor fit] | – |
| COc1cccc(/C=C2\SC(=S)N(CCCC(=O)N(CCO)c3ccccc3)C2=O)c1 | 4.47 µM [falling, partial curve] | – |
| CCOC(=O)c1ccc(CNC(=O)c2cc(C(C)(C)C)oc2C)o1 | 18.4 µM [falling, single point] | – |
| O[C@@H]1[C@@H](O)C=C2CCN3Cc4cc5c(cc4[C@H]1C23)OCO5 (stereo partly specified) | 5.8 µM [falling, partial curve] | – |
| NS(=O)(=O)c1ccc(NC(=S)NC(=O)C2CCCCC2)cc1 | 35.5 µM [rising, single point] | – |
| CC(C)(C)NC(=O)CSc1nc2cccnc2n1C1CCCCC1 | 0.447 µM [rising, full curve, poor fit] | – |
| CCOC(=O)C1=C(OCc2ccc(Cl)cc2)C2C=C(C)C=CC2N=C1 (stereo unspecified) | 23.1 µM [falling, single point] | – |
| CCN1CCN(c2nc3c(c(=O)[nH]c(=O)n3C)n2CCCSc2ncccn2)CC1 | 0.794 µM [falling, full curve] | – |
| COc1ccccc1NC(=O)c1cc2cc(Br)ccc2oc1=N | 3.16 µM [rising, partial curve, poor fit] | – |
| COc1ccc(N=C2SC(CC(=O)Nc3ccc(F)cc3)C(=O)N2Cc2ccco2)cc1 (stereo unspecified) | 29.1 µM [rising, single point] | – |
| Cn1c2ccccc2c2cc(/C=N/NC(=O)c3ccccc3F)ccc21 | 14.1 µM [falling, partial curve] | – |
| Cc1ccc2c(C)c(C(=O)N3CCC(O)(c4ccccc4)CC3)oc2c1C | 11.2 µM [rising, partial curve, poor fit] | – |
| COc1ccc(/C=C\C(=O)NCC(=O)N/N=C/c2ccc(O)cc2O)cc1 | 12.6 µM [falling, single point] | – |
| Cn1c(=O)cc(OCC(=O)NCc2cccnc2)c2ccccc21 | 11.2 µM [rising, partial curve] | – |
| CCC(=O)Nc1sc(Cc2ccccc2)c(C)c1C(N)=O | 3.98 µM [falling, full curve] | – |
| C=CCn1c(C)csc1=Nc1ccccc1C | 25.1 µM [rising, partial curve, poor fit] | – |
| CCCc1cc(=O)oc2cc(OCC(=O)NCCCN3CCCC3=O)ccc12 | 35.5 µM [rising, single point] | – |
| Fc1cccc(/C=N/Nc2ccc3ccccc3n2)c1 | 1.58 µM [falling, partial curve, poor fit] | – |
| COCCCNC(=O)c1ccc(CS(=O)(=O)c2cccc(C(F)(F)F)c2)o1 | 35.5 µM [rising, single point] | – |
| CC(C)(O)c1[nH]c2ccc(C(F)(F)F)cc2c1C(C)(C)O | 1.12 µM [rising, full curve, poor fit] | – |

Shown with bars between the fields: 2 of the compounds above
Compound | AC50 [1] | AC50 (measured here: IkBa-CBG green luminescence)
CC(C)c1nnc(NC(=O)c2cccc(NC(=O)C(F)(F)F)c2)s1 | 35.5 µM [falling, single point] | –
O=C(c1ccc(Cl)c(Cl)c1)N1CCC(=O)N(C(COCc2cccc(Cl)c2)Cc2ccccc2)CC1 (stereo unspecified) | 29.1 µM [falling, single point] | –
